# Results of single-concentration screens

Chains of the proteins cited; added tags and fusions are not shown. Residues count along the entry.
UniProt A4I591, 1-473: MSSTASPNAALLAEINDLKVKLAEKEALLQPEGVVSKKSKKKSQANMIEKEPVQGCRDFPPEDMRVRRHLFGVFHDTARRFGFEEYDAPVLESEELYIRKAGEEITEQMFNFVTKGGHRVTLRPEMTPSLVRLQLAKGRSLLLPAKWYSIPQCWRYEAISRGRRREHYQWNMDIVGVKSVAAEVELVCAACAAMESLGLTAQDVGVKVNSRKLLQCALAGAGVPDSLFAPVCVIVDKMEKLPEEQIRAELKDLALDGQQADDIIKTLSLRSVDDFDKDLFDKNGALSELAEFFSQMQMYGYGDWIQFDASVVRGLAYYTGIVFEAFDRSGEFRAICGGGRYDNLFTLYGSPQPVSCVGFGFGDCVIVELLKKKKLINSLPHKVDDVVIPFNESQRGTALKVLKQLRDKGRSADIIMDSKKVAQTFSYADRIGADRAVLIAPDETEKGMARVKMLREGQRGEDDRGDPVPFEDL
UniProt P9WNZ1, whole entry: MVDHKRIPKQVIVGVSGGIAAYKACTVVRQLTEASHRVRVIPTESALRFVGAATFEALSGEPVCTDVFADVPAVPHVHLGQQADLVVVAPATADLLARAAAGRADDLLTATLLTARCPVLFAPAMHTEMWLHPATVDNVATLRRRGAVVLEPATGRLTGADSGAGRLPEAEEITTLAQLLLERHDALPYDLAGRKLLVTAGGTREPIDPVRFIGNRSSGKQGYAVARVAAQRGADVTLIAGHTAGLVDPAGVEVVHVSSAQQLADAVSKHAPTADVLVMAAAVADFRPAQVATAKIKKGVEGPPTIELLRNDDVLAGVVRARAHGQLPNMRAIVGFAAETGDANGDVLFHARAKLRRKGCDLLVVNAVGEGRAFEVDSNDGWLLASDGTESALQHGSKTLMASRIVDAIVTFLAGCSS
UniProt Q8IDJ8, 1-583: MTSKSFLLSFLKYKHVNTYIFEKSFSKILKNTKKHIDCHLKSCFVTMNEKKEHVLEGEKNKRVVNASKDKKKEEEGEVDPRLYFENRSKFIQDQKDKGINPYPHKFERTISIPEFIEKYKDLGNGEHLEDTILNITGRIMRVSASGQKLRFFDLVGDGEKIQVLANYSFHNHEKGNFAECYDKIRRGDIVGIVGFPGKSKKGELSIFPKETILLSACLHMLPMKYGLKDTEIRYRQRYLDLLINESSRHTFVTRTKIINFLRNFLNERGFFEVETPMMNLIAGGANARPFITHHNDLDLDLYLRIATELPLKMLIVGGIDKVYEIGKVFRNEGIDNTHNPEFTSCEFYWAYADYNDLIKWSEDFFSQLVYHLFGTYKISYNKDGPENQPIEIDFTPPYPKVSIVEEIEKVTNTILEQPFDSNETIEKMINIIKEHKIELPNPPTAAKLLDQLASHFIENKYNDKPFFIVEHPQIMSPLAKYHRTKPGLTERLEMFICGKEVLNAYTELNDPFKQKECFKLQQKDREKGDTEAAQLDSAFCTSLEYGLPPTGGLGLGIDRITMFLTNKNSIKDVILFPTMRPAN
UniProt P9WFT3, whole entry: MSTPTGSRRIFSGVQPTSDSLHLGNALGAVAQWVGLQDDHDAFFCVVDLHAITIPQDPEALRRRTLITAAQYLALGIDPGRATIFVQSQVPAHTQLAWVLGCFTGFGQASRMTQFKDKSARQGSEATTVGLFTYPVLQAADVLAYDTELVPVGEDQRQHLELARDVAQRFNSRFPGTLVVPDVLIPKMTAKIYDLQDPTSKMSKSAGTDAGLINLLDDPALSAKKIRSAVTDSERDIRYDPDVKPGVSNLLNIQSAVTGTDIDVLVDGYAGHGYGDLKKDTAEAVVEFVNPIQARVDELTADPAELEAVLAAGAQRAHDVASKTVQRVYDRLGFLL

Values are the deposited “Percent Effect”, in %.
The controls that fix the scale are not given in the record; negative values are as filed.
This is an unselected part of the compounds tested.

LiHisRS: 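Enzyme assay of histidyl-tRNA synthetase; the read-out is not stated. Target: Histidine-tRNA ligase, Leishmania infantum (UniProt A4I591). Concentration: 30 µM. Higher reads as stronger inhibition (inferred: compounds with an IC50 in retests scored well above the rest). The assay is labelled LdHisRS but filed under L. infantum. About 69,000 compounds were tested under these conditions; 0.6% (about 410) showed 50% or more at least once.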
CoaBC: 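Enzyme assay of CoaBC with a phosphate dye (Biomol Green) read at 650 nm. Target: Coenzyme A biosynthesis protein CoaBC, Mycobacterium tuberculosis (UniProt P9WNZ1). Compounds at 30 µM. Direction is inferred from only a few compounds that gave an IC50; most scored high, so higher reads as stronger inhibition. Most strong results did not repeat in a second test. Size under these conditions: about 67,000 compounds, about 40 of them at 50% or above in at least one test.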
PfKRS1: 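Enzyme assay of the cytosolic lysyl-tRNA synthetase in 384-well plates, read by luminescence. Target: Lysine-tRNA ligase, Plasmodium falciparum 3D7 (UniProt Q8IDJ8). Tested at 30 µM. Higher reads as stronger inhibition, judged from the few compounds that gave an IC50. Size under these conditions: about 69,000 compounds, about 49 of them at 50% or above in at least one test.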
MtTrpRS: 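Tryptophan-tRNA ligase, Mycobacterium tuberculosis (UniProt P9WFT3). Enzyme assay of tryptophanyl-tRNA synthetase; the read-out is not stated. Compounds at 10 µM. Direction is not recorded; retested compounds ran higher, which suggests that high means inhibition. Size under these conditions: about 65,000 compounds, about 64 of them at 50% or above in at least one test.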

Result for CCNC(=O)N[C@H]1C[C@@H](Cc2cc(CN3CCCCC3)on2)C1(C)C was LiHisRS: 16.67%; CoaBC: 2.581%; PfKRS1: 6.168%; MtTrpRS: -3.996%.
Result for C1CCN(CCOC2CCNCC2)CC1 was LiHisRS: 2.521%; CoaBC: -4.715%; PfKRS1: 2.228%; MtTrpRS: -4.216%.
Result for CC(NC(=O)c1ccnc(C2CC2)n1)C1(N2CCOCC2)CCCC1 (centres unmarked) was LiHisRS: 3.125%; CoaBC: 7.589%; PfKRS1: 2.379%; MtTrpRS: -4.85%.
Result for CCOC1CCCN(C(=O)c2sccc2-n2cnnn2)C1 (centres unmarked) was LiHisRS: 8.511%; CoaBC: -8.808%; PfKRS1: 2.321%; MtTrpRS: -0.9651%.
Result for Cn1cc(Cl)c(CN2CCn3nc(C(=O)Nc4ccccc4)cc3C2)n1 was LiHisRS: 13.11%; CoaBC: -1.023%; PfKRS1: 2.094%; MtTrpRS: -2.047%.
Result for COc1ccccc1[C@@H]1CN(C(=O)Cc2csc(C)n2)C[C@H]1C(=O)O was LiHisRS: 27.27%; CoaBC: 5.72%; PfKRS1: -3.987%; MtTrpRS: 8.587%.
Result for CS(=O)(=O)c1cc(S(N)(=O)=O)ccc1NCC1CCCO1 (centres unmarked) was LiHisRS: 4.878%; CoaBC: 2.163%; PfKRS1: 0.6426%; MtTrpRS: 2.673%.
Result for Cc1nc2cc(C3CCN(Cc4ccccc4F)C3)nn2c(O)c1C (centres unmarked) was LiHisRS: 1.042%; CoaBC: 0.9804%; PfKRS1: 0.8842%.
Result for COc1ccccc1C(=O)NCc1n[nH]c(C)n1 was LiHisRS: 19.4%; CoaBC: 2.811%; PfKRS1: 0.9888%; MtTrpRS: -5.005%.
Result for Cc1cc(NC2CCCN(Cc3ccc(F)cc3)C2)n2nc(C)cc2n1 (centres unmarked) was LiHisRS: 27.4%; CoaBC: 7.579%; PfKRS1: 2.578%; MtTrpRS: 1.192%.
Result for O=C(c1ncoc1-c1ccco1)N1CCCN(c2nccs2)CC1 was LiHisRS: 1.754%; CoaBC: 3.629%; PfKRS1: 3.517%; MtTrpRS: -4.722%.
Result for Cc1occc1C(=O)N1Cc2nccn2CC(CN2CCOCC2)C1 (centres unmarked) was LiHisRS: 21%; CoaBC: 2.101%; PfKRS1: 3.938%; MtTrpRS: 0.9856%.
Result for CN1N=C(C(=O)N2CCN(c3ncccn3)CC2)CCC1=O was LiHisRS: 21.92%; CoaBC: -0.4545%; PfKRS1: -1.954%; MtTrpRS: -4.61%.
Result for CC(C)c1n[nH]c(C2CN(C(=O)c3cc(C4CC4)[nH]n3)CCO2)n1 (centres unmarked) was LiHisRS: 4.386%; CoaBC: -1.173%; PfKRS1: -0.1588%; MtTrpRS: -4.184%.
Result for Cc1noc([C@@]23CCO[C@@H]2CCN(CC2CCOCC2)C3)n1 was LiHisRS: 11.32%; CoaBC: 2.665%; PfKRS1: 5.244%; MtTrpRS: -7.03%.
Result for N#Cc1cn(C2CC2)c(=O)n(Cc2noc(-c3cccs3)n2)c1=O was LiHisRS: 16.44%; CoaBC: 15.91%; PfKRS1: 2.007%; MtTrpRS: 4.681%.
Result for O=C(c1cccc(N2CCCC2=O)c1)N1CCCC(n2cncn2)C1 (centres unmarked) was LiHisRS: 30.95%; CoaBC: 5.338%; PfKRS1: 1.445%; MtTrpRS: 2.426%.
Result for CC(C)Cc1noc(CN2CCOCC2)n1 was LiHisRS: 18.4%; CoaBC: -0.266%; PfKRS1: 3.214%; MtTrpRS: 0.1572%.
Result for CSc1nc(N)cc(N2C[C@@H]3CC[C@H](C2)N(CC2CC2)C3=O)n1 was LiHisRS: 24.66%; CoaBC: 12.73%; PfKRS1: -0.7749%; MtTrpRS: 3.42%.
Result for CC(C)c1nccn1C1CCCN(C(=O)CCc2cnn(C)c2)C1 (centres unmarked) was LiHisRS: 18.42%; CoaBC: 2.216%; PfKRS1: -0.1323%; MtTrpRS: -3.83%.
Result for COc1cccc2c1N(Cc1nc3c(cnn3C)c(=O)[nH]1)CCC2 was LiHisRS: 18.33%; CoaBC: 13.66%; PfKRS1: 0.4769%; MtTrpRS: 6.112%.

Once more, the final 2:

CC(C)c1nccn1C1CCCN(C(=O)CCc2cnn(C)c2)C1 (centres unmarked) gave LiHisRS: 18.42%; CoaBC: 2.216%; PfKRS1: -0.1323%; MtTrpRS: -3.83%.
COc1cccc2c1N(Cc1nc3c(cnn3C)c(=O)[nH]1)CCC2 gave LiHisRS: 18.33%; CoaBC: 13.66%; PfKRS1: 0.4769%; MtTrpRS: 6.112%.

Source: ChEMBL document CHEMBL3988442, “University of Dundee, Small-Polar-MMV Screening Library” (2021).